Results on twelve compounds are retold here after PubChem BioAssay AID248 (DTP/NCI, 2004).

Structures are written as SMILES. The list is a part of this screen's results and no random one: it is rich in T/C values a quarter to a half above the control, in often repeated tests (any T/C) and in doses without a T/C. Further doses and runs are listed elsewhere. T/C gives the treated animals as a percentage of the vehicle group. Some entries give survivors of the animals treated and no T/C: the source files T/C as zero there, which appears to mark a toxic dose or a test without result, not a measured value. Some survivor counts are full or nearly so, which does not show that the dose was tolerated: the source hardly ever lists a survival T/C far under the control, and the zero likely stands for such cases as well. Counts of survivors are from the toxicity check (mostly the fifth day) where no day follows; animals may have died later. Schedules are NCI's codes, taken here to give the interval after Q, in days (D) or hours (H), and the number of doses after X. Some entries were tested several times; the results are listed from low to high. Signs of the kind (2×) give the number of equal values in this list. For survival time, this PubChem deposit counts one and a half times the control or more as active, and values a quarter to a half above the control carry no call in these data; other NCI protocols may use other cut-offs. Some T/C values carry the count of animals alive at the toxicity check (mostly the fifth day); where none is given, no animal had died by that day.

The test system of this experiment is L1210 leukemia ip in BDF1 mice, survival T/C. As to the kind of experiment: NCI In Vivo Anticancer Drug Screen. Data for tumor model L1210 Leukemia (intraperitoneal) in B6D2F1 (BDF1) mice. The conditions noted are these: higher T/C = longer survival.
Where [1] appears, read: T/C endpoint: mean survival time, dose: 400.0 mg/kg/injection, schedule: Q01DX009 (ip), vehicle: saline.
The mark [2] stands for this setting: T/C endpoint: mean survival time, dose: 400.0 mg/kg/injection, schedule: Q01DX001 (ip), vehicle: carboxymethylcellulose (CMC).
Where [3] appears, read: T/C endpoint: mean survival time, dose: 300.0 mg/kg/injection, schedule: Q01DX001 (ip), vehicle: saline.
Setting [4] is: T/C endpoint: mean survival time, dose: 100.0 mg/kg/injection, schedule: Q01DX009 (ip), vehicle: saline.
Where [5] appears, read: T/C endpoint: mean survival time, dose: 200.0 mg/kg/injection, schedule: Q01DX009 (ip), vehicle: saline.
Where [6] appears, read: T/C endpoint: mean survival time, dose: 100.0 mg/kg/injection, schedule: Q01DX001 (ip), vehicle: carboxymethylcellulose (CMC).

For `O=P1(NCCCl)OCCCN1CCCl` (stereo not drawn), the T/C was 139 % of control (T/C endpoint: mean survival time, dose: 25.0 mg/kg/injection, schedule: Q01DX009 (ip), vehicle: water); 126 % of control (T/C endpoint: mean survival time, dose: 50.0 mg/kg/injection, schedule: Q01DX001 (ip), vehicle: saline, evaluated on day 30); 130 % of control (T/C endpoint: mean survival time, dose: 50.0 mg/kg/injection, schedule: Q01DX001 (ip), vehicle: saline, run until all animals had died); 126 % of control (T/C endpoint: mean survival time, dose: 50.0 mg/kg/injection, schedule: Q07DX003 (ip), vehicle: saline); 138 and 143 % of control (T/C endpoint: mean survival time, dose: 100.0 mg/kg/injection, schedule: Q01DX001 (ip), vehicle: saline, evaluated on day 30); 143 % of control [7 of 8 alive] (T/C endpoint: mean survival time, dose: 100.0 mg/kg/injection, schedule: Q01DX001 (ip), vehicle: saline, run until all animals had died). Also, the T/C is 134 % of control (T/C endpoint: mean survival time, dose: 200.0 mg/kg/injection, schedule: Q01DX009 (ip), vehicle: water); 148 % of control (T/C endpoint: median survival time, dose: 108.0 mg/kg/injection, schedule: Q01DX014 (ip), vehicle: water, evaluated on day 5); 147 % of control (T/C endpoint: median survival time, dose: 108.0 mg/kg/injection, schedule: Q01DX014 (ip), vehicle: water, evaluated on day 45); 167 and 214 % of control (T/C endpoint: median survival time, dose: 180.0 mg/kg/injection, schedule: Q01DX001 (ip), vehicle: water, evaluated on day 5); 170 % of control (T/C endpoint: median survival time, dose: 180.0 mg/kg/injection, schedule: Q01DX001 (ip), vehicle: water, evaluated on day 7); 168 % of control (T/C endpoint: median survival time, dose: 180.0 mg/kg/injection, schedule: Q01DX001 (ip), vehicle: water, evaluated on day 45). The T/C reads like this: (T/C endpoint: median survival time, dose: 180.0 mg/kg/injection, schedule: Q01DX001 (ip), vehicle: water, evaluated on day 50) 156 % of control; (T/C endpoint: median survival time, dose: 180.0 mg/kg/injection, schedule: Q01DX001 (ip), vehicle: water, evaluated on day 60) 155 % of control; (T/C endpoint: median survival time, dose: 180.0 mg/kg/injection, schedule: Q01DX001 (ip), vehicle: water, evaluated on day 90) 177 % of control; (T/C endpoint: median survival time, dose: 300.0 mg/kg/injection, schedule: Q01DX001 (ip), vehicle: water, evaluated on day 5) 178, 208, 283 % of control; (T/C endpoint: median survival time, dose: 300.0 mg/kg/injection, schedule: Q01DX001 (ip), vehicle: water, evaluated on day 7) 174 % of control; (T/C endpoint: median survival time, dose: 300.0 mg/kg/injection, schedule: Q01DX001 (ip), vehicle: water, evaluated on day 45) 189 % of control. The T/C was 175 % of control [7 of 8 alive] (T/C endpoint: median survival time, dose: 300.0 mg/kg/injection, schedule: Q01DX001 (ip), vehicle: water, evaluated on day 50); 183 and 194 % of control (T/C endpoint: median survival time, dose: 300.0 mg/kg/injection, schedule: Q01DX001 (ip), vehicle: water, evaluated on day 60); 227 % of control (T/C endpoint: median survival time, dose: 300.0 mg/kg/injection, schedule: Q01DX001 (ip), vehicle: water, evaluated on day 90); 40, 148, 191 % of control (T/C endpoint: median survival time, dose: 500.0 mg/kg/injection, schedule: Q01DX001 (ip), vehicle: water, evaluated on day 5); 265 % of control (T/C endpoint: median survival time, dose: 500.0 mg/kg/injection, schedule: Q01DX001 (ip), vehicle: water, evaluated on day 7); 268 % of control (T/C endpoint: median survival time, dose: 500.0 mg/kg/injection, schedule: Q01DX001 (ip), vehicle: water, evaluated on day 50). For the same compound, the T/C reads like this: (T/C endpoint: median survival time, dose: 500.0 mg/kg/injection, schedule: Q01DX001 (ip), vehicle: water, evaluated on day 60) 183 % of control [7 of 8 alive]; (T/C endpoint: median survival time, dose: 833.0 mg/kg/injection, schedule: Q01DX001 (ip), vehicle: water, evaluated on day 5) 28 and 29 % of control; (T/C endpoint: median survival time, dose: 833.0 mg/kg/injection, schedule: Q01DX001 (ip), vehicle: water, evaluated on day 7) 97 % of control. The survivor count by setting is: under setting [1], 3 of 10; (T/C endpoint: mean survival time, dose: 400.0 mg/kg/injection, schedule: Q01DX009 (ip), vehicle: water) 8 of 10; (T/C endpoint: median survival time, dose: 300.0 mg/kg/injection, schedule: Q01DX014 (ip), vehicle: water) 5 of 8; (T/C endpoint: median survival time, dose: 500.0 mg/kg/injection, schedule: Q01DX001 (ip), vehicle: saline) 3 of 8; (T/C endpoint: median survival time, dose: 500.0 mg/kg/injection, schedule: Q01DX001 (ip), vehicle: water) 0 of 8, 4 of 8, 6 of 8; (T/C endpoint: median survival time, dose: 500.0 mg/kg/injection, schedule: Q07DX003 (ip), vehicle: water) 6 of 8. The survivor count is 2 of 8 (T/C endpoint: median survival time, dose: 700.0 mg/kg/injection, schedule: Q01DX001 (ip), vehicle: water); 0 of 8 (T/C endpoint: median survival time, dose: 800.0 mg/kg/injection, schedule: Q01DX001 (ip), vehicle: water); 0 of 8 (T/C endpoint: median survival time, dose: 833.0 mg/kg/injection, schedule: Q01DX001 (ip), vehicle: saline); 0 of 8 (2×), 1 of 8, 4 of 8 (T/C endpoint: median survival time, dose: 833.0 mg/kg/injection, schedule: Q01DX001 (ip), vehicle: water); 1 of 8 (T/C endpoint: median survival time, dose: 833.0 mg/kg/injection, schedule: Q07DX003 (ip), vehicle: water); 0 of 8 (T/C endpoint: median survival time, dose: 900.0 mg/kg/injection, schedule: Q01DX001 (ip), vehicle: water).

On to `CC1(C)CC(N)CC(C)(C)N1`, for which the survivor count is listed as 0 of 4 (T/C endpoint: mean survival time, dose: 200.0 mg/kg/injection, schedule: Q01DX001 (ip), vehicle: carboxymethylcellulose (CMC)) and 0 of 4 under setting [2].

For the compound `CC1(c2cccs2)NC(=O)N(Cl)C1=O` (stereo not drawn), the survivor count is listed as 6 of 6 (T/C endpoint: mean survival time, dose: 200.0 mg/kg/injection, schedule: Q04DX003 (ip), vehicle: saline with Tween-80) and 1 of 6 (T/C endpoint: mean survival time, dose: 400.0 mg/kg/injection, schedule: Q04DX003 (ip), vehicle: saline with Tween-80).

Regarding `NNC(=O)CCc1ccccc1[N+](=O)[O-]`, under setting [3], the survivor count is on record as 3 of 6.

On to `Cc1c2oc3c(C)ccc(C(=O)NC4C(=O)NC(C(C)C)C(=O)N5CCCCC5C(=O)N(C)CC(=O)N(C)C(C(C)C)C(=O)OC4C)c3nc-2c(C(=O)NC2C(=O)NC(C(C)C)C(=O)N3CCCCC3C(=O)N(C)CC(=O)N(C)C(C(C)C)C(=O)OC2C)c(N)c1=O` (stereo not drawn), for which the survivor count by setting is: (T/C endpoint: mean survival time, dose: 2.0 mg/kg/injection, schedule: Q01DX009 (ip), vehicle: water) 6 of 6; (T/C endpoint: mean survival time, dose: 4.0 mg/kg/injection, schedule: Q01DX009 (ip), vehicle: water) 2 of 6; (T/C endpoint: mean survival time, dose: 8.0 mg/kg/injection, schedule: Q01DX001 (ip), vehicle: saline) 1 of 6; (T/C endpoint: mean survival time, dose: 16.0 mg/kg/injection, schedule: Q01DX001 (ip), vehicle: saline) 1 of 6. For the same compound, where the note is “T/C endpoint: mean survival time, dose: 4.0 mg/kg/injection, schedule: Q01DX001 (ip), vehicle: saline”, the T/C is 127 [4 of 6 alive] and 137 % of control.

In the case of `O=NN(CCCl)C(=O)NC1CCC(CC2CCC(NC(=O)N(CCCl)N=O)CC2)CC1` (stereo not drawn), the T/C (T/C endpoint: mean survival time, dose: 23.0 mg/kg/injection, schedule: Q01DX001 (ip), vehicle: gum acacia) is 138 % of control.

As for `NC(=O)OCCI`, under setting [4], the T/C was 132 % of control. Also, under setting [5], the survivor count is reported as 2 of 6.

Take `CN(C)CCCC1(c2cccc(Cl)c2)SC(C)(C)c2ccccc21` (stereo not drawn): the survivor count is, setting by setting: under setting [4], 0 of 6; under setting [5], 0 of 6; under setting [1], 0 of 6.

As for `CCCC(NC)C(CC)CN` (stereo not drawn), the T/C under setting [6] is 143 % of control. The survivor count is 0 of 6 and 1 of 4 under setting [3]; 0 of 6 and 1 of 6 under setting [2].

For the compound `COc1cc(OC)cc(C(N)=O)c1`, the survivor count (T/C endpoint: mean survival time, dose: 200.0 mg/kg/injection, schedule: Q04DX003 (ip), vehicle: Klucel (hydroxypropylcellulose) (HPC)) is on record as 6 of 6.

For `CC(C[P+](c1ccccc1)(c1ccccc1)c1ccccc1)C(O)(C(=O)c1ccccc1)c1ccccc1` (stereo not drawn), the survivor count is reported as 0 of 6 (T/C endpoint: mean survival time, dose: 100.0 mg/kg/injection, schedule: Q01DX001 (ip), vehicle: saline with Tween-80); 0 of 6 (T/C endpoint: mean survival time, dose: 200.0 mg/kg/injection, schedule: Q01DX001 (ip), vehicle: saline with Tween-80); 0 of 6 (T/C endpoint: mean survival time, dose: 400.0 mg/kg/injection, schedule: Q01DX001 (ip), vehicle: saline with Tween-80).

As for `CCOC(=O)C1CC(Cl)c2c(ccc3cc(OC)ccc23)N1` (stereo not drawn), the survivor count under setting [6] is on record as 2 of 6.
